Drawing on publication PMC10698284, this text covers binding for 13 substances.

Amino acid sequences for entries named in this document (tags omitted). A change or cut given only in a name is not applied to a line headed by its entry. Chains listed by the source or under a name are the forms on record and can include a tag or linker. Residues count along the entry.
FLAG-SLC3A2 WTseq (P08195, residues 66-630): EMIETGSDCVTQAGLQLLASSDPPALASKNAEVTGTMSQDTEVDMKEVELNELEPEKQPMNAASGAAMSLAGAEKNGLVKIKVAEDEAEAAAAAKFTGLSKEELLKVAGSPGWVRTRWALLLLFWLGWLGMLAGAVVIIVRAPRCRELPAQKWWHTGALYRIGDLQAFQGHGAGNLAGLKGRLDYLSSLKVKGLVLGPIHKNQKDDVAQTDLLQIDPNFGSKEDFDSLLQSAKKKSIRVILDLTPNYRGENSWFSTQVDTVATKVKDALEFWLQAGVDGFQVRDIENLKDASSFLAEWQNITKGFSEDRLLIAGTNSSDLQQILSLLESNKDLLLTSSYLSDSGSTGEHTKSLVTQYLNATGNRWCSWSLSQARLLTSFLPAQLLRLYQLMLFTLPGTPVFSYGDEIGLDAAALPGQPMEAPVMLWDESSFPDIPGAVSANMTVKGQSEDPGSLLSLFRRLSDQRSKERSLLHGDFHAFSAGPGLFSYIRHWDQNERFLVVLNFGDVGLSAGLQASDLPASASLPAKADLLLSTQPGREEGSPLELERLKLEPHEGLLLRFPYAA
FLAG-SLC3A2 A273N (P08195, form named): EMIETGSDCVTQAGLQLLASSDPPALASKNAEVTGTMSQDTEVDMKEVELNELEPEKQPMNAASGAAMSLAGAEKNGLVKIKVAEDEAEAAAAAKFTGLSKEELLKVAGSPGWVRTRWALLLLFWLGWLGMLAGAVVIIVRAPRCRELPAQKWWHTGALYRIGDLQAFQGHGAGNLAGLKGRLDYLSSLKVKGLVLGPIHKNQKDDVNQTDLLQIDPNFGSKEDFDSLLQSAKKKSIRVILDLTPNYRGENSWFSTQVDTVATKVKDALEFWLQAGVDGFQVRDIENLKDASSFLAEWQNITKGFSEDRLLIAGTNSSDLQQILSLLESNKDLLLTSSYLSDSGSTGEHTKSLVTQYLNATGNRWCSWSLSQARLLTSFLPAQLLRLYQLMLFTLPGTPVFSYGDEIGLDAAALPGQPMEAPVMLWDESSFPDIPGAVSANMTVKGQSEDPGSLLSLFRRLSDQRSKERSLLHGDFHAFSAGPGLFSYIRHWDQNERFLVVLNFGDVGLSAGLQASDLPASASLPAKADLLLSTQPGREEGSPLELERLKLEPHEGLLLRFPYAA
FLAG-SLC3A2 A273N + D355N (P08195, form named): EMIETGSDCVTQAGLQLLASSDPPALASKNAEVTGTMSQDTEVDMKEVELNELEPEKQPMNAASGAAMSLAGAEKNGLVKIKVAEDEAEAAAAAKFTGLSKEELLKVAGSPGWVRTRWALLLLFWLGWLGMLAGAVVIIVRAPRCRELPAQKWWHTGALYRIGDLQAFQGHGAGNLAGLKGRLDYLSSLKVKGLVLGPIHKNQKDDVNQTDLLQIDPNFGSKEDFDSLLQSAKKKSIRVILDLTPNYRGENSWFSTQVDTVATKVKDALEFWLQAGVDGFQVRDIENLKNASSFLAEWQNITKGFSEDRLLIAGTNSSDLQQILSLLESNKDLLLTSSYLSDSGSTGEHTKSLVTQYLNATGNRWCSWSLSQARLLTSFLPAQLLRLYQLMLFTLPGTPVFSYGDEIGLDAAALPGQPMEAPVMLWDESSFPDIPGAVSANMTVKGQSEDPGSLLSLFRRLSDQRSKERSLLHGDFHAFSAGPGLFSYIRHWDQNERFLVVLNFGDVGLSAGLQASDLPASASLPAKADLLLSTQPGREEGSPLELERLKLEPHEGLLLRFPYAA
UniProt Q9H9S3: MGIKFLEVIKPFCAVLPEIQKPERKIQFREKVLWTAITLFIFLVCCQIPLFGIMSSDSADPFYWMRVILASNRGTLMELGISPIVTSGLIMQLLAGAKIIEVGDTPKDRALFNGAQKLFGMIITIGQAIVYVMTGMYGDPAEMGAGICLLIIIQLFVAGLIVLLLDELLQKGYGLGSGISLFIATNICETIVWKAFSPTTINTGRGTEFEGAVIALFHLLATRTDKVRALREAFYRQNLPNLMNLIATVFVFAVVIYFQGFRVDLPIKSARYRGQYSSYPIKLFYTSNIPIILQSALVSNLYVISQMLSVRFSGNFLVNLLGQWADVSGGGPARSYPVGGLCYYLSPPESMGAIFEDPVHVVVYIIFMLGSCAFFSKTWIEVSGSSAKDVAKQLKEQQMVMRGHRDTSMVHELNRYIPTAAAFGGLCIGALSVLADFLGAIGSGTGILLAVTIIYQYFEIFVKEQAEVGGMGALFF
UniProt P16070, residues 21-742: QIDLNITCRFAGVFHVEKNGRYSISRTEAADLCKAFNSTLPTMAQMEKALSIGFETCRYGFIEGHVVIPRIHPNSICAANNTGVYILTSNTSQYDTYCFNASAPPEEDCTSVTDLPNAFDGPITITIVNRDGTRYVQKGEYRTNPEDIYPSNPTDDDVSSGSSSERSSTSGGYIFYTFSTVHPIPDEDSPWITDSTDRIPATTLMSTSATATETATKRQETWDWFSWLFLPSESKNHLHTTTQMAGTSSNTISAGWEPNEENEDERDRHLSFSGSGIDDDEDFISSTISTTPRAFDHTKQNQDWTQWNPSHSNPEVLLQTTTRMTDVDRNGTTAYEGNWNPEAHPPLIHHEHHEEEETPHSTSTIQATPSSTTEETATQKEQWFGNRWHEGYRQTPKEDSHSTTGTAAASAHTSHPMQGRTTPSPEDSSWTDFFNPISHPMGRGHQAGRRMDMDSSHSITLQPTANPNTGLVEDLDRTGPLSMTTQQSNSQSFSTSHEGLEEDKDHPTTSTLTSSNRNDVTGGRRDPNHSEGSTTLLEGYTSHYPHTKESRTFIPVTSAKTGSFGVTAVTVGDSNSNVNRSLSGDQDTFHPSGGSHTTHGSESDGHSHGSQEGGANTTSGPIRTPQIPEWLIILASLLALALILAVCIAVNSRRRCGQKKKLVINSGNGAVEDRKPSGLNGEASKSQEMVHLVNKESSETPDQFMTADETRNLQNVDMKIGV
UniProt P11142: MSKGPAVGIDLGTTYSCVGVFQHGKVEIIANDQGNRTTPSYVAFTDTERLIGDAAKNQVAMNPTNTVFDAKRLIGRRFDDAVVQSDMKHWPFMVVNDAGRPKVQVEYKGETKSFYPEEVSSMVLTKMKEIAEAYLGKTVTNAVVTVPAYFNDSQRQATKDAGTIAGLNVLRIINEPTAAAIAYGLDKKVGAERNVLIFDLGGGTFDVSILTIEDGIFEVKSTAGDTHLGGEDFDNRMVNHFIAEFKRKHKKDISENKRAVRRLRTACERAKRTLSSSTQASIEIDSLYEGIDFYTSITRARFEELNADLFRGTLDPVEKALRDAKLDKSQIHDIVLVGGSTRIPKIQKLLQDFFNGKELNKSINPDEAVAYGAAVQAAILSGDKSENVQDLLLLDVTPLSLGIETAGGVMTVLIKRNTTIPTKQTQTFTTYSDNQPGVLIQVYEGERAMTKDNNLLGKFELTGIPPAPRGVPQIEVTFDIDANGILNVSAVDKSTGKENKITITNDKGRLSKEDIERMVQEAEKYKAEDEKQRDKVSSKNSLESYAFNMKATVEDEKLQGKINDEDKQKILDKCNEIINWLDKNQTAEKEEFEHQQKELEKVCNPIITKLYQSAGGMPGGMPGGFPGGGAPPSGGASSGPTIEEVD
UniProt P04792: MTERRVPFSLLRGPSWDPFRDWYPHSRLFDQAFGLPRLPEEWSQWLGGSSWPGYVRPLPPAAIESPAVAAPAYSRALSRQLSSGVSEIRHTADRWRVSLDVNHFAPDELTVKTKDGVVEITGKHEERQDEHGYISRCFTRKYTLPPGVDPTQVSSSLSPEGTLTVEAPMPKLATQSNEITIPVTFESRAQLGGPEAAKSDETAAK
UniProt P61619: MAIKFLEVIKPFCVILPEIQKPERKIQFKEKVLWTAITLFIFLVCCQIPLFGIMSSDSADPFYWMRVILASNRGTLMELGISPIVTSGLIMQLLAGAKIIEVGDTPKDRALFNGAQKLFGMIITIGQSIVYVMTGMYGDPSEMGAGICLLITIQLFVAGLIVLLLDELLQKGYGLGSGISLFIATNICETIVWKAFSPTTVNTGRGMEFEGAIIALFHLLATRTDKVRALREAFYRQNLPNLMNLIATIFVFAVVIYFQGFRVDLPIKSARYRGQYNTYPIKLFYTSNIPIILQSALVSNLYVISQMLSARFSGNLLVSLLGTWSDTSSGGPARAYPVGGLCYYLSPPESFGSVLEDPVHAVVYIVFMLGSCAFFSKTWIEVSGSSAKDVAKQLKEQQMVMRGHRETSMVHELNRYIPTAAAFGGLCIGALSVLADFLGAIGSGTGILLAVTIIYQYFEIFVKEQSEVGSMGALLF
UniProt P30825: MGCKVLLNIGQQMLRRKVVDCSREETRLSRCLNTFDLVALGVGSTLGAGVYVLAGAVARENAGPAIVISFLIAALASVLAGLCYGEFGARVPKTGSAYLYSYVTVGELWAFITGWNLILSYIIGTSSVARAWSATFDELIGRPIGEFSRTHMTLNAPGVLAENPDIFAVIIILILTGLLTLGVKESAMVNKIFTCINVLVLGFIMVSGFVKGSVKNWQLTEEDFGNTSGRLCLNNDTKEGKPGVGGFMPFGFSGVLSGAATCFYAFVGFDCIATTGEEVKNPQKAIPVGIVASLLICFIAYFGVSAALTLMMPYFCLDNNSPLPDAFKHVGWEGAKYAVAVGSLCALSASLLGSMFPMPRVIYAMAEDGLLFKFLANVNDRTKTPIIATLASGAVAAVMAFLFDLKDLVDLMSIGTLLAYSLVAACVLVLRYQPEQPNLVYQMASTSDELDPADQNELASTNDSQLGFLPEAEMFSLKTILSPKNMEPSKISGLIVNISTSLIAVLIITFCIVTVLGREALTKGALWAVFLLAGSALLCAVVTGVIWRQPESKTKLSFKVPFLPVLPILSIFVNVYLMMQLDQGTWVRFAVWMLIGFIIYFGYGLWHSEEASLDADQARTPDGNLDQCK
UniProt P08238: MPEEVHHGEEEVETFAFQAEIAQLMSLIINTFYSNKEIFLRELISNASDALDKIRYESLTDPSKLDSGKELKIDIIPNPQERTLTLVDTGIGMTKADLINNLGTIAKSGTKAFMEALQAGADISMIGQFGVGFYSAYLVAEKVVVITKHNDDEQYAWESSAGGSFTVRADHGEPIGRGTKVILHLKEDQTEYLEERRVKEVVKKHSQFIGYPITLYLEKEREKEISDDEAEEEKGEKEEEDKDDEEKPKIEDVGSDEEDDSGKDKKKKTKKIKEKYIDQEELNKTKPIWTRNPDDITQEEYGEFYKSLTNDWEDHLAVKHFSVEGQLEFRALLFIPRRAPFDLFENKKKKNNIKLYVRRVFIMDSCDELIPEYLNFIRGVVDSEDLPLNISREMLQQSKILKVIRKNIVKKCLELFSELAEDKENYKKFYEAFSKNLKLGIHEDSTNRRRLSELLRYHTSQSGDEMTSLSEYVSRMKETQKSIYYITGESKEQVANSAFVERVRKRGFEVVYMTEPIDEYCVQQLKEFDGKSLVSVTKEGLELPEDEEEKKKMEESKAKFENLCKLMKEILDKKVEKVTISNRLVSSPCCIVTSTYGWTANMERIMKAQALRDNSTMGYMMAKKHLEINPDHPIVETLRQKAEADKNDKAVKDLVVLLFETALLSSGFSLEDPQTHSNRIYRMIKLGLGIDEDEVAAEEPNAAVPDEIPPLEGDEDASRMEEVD
UniProt P60468: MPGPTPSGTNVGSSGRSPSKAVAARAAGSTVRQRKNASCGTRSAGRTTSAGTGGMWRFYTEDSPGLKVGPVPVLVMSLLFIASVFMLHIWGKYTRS
UniProt P11021, residues 19-654: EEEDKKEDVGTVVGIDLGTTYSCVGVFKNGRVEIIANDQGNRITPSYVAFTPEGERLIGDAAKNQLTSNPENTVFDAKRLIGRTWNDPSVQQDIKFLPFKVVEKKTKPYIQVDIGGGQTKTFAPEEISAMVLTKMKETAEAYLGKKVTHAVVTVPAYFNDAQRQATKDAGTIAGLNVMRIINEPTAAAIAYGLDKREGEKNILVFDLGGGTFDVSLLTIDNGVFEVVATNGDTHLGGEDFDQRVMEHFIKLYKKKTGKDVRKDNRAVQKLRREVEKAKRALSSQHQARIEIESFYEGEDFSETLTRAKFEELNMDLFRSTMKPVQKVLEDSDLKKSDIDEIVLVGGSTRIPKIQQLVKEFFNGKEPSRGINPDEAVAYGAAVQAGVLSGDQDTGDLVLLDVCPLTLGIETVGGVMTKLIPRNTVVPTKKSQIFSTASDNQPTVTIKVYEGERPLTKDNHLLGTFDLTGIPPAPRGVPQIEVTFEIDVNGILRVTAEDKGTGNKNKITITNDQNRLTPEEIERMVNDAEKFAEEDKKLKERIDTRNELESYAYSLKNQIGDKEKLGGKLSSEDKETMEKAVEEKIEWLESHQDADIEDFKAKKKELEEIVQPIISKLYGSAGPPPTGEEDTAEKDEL

No constants are given. Whether binding was seen depends on the method and setting. In cells and extracts the contact can be indirect. Here binding means that the protein was enriched with, or labelled near, the bait; the list need not be complete.

What all share (experiment): affinity purification with mass spectrometry; anti-FLAG M2 agarose, 4 h at 4 °C, 1 mg lysate (0.5% NP40, 50 mM HEPES pH 8.0, 100 mM KCl, 1 mM EDTA, 10% glycerol) of HeLa Flp-In T-REx SLC3A2 KO cells with dox-induced FLAG-SLC3A2 WTseq or site variants; on-bead trypsin digest, DDA and SWATH; control: dox-treated SLC3A2 KO cells; in some samples 10 μM fluvastatin or 250 ng/ml swainsonine for the final 24 h

The target in assay [1] is FLAG-SLC3A2 A273N (human) (UniProt P08195).
For assay [2], the target named is FLAG-SLC3A2 WTseq (human) (UniProt P08195).
The target of assay [3] is FLAG-SLC3A2 A273N + D355N (human) (UniProt P08195).

On to SEC61A2 (from UniProt Q9H9S3 1-476), for which the binding result in assay [1] and in assay [2] was “binds” each time.

BSG (from UniProt P35613-2): the binding result in assay [2] is given as “binds”.

For the substance CD44 (from UniProt P16070 21-742), the binding entry in assay [2] is “binds”.

With HSPA8 (from UniProt P11142 1-646), the binding entry in assay [1], in assay [3] and in assay [2] was “binds” in each case.

For HSPB1 (from UniProt P04792 1-205), the binding result in assay [1] and in assay [2] was “binds” each time.

Take ATP1B3 (from UniProt P54709 1-279): the binding result in assay [2] was “binds”.

In the case of SEC61A1 (from UniProt P61619 1-476), the binding entry in assay [1] and in assay [2] was “binds” each time.

Turning to “Arg/Lys/Ornithine high-affinity permease SLC7A1 (from UniProt P30825 1-629)”, the binding result in assay [2] is “binds”.

HSP90AB1 (from UniProt P08238 1-724): the binding result in assay [1], in assay [3] and in assay [2] was “binds” each time.

On to SEC61B (from UniProt P60468 1-96), for which the binding result in assay [2] was “binds”.

As for CANX (from UniProt P27824 21-592), the binding entry in assay [1] and in assay [2] was “binds” throughout.

For the substance HSPA5 (from UniProt P11021 19-654), the binding result in assay [1], in assay [3] and in assay [2] was “binds” each time.

HSP90AA1 (from UniProt P07900 1-732): the binding entry in assay [1], in assay [3] and in assay [2] was “binds” throughout.
